Measured values published in PubChem BioAssay AID493014 (National Center for Advancing Translational Sciences (NCATS), 2011).
The other results are listed elsewhere or left out. Further columns of the screen follow, without active or inactive calls. Compounds called inactive in the main read-out are mostly missing here. Words in brackets tell the shape of the fitted curve; partial curves, single points and poor fits give uncertain potencies.

Assay: qHTS Assay to Find Inhibitors of Chronic Active B-Cell Receptor Signaling
Details: ABC-DLBCL IkBa-CBG/CBR reporter, luminescence ratio (green luciferase fused to IkBa over red control in TMD8 lymphoma cells), 4 h
How it was run: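 Compounds up to 46 uM were incubated four hours with TMD8 cells whose green CBG68 luciferase is fused to IkappaBalpha; red CBR luminescence normalised the signal, and concentration-effect curves were fitted to fusion, red and ratio data.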

[1] = measured here: CBR red luminescence, cell number
[2] = measured here: IkBa-CBG green luminescence

| Structure (SMILES) | AC50 [1] | AC50 [2] |
| --- | --- | --- |
| COc1ccc(CCc2nc(-c3cccs3)no2)cc1 | 7.94 µM [rising, partial curve] | – |
| Cc1cccc(NC(=O)CSc2nc(=O)n(Cc3cccnc3)c3c2CCC3)c1 | 22.4 µM [falling, single point] | – |
| CC12CCC(=O)N1C(C(=O)Nc1nc(-c3ccc(F)c(F)c3)cs1)CS2 (configuration not stated) | 7.31 µM [falling, partial curve] | – |
| Cc1cc(=O)oc2cc(NC(=S)NNC(=O)c3c(Cl)cnn3C)ccc12 | 2.24 µM [rising, full curve] | – |
| COc1ccc2oc(C(=O)OCC(=O)N3CCN(S(=O)(=O)c4ccc(C)cc4)CC3)c(C)c2c1 | 6.31 µM [rising, partial curve, poor fit] | – |
| CCOc1ccccc1OCCCC(=O)ON=C(N)c1ccccc1 | 8.2 µM [rising, partial curve] | – |
| O=C(CCCOc1ccccc1)Nc1cccc(C(=O)O)c1 | 11.6 µM [falling, partial curve] | – |
| C=CCNC(=S)N/N=C/c1cn(C)c2ccccc12 | – | 11.2 µM [falling, partial curve] |
| CC(=O)N(Nc1ccccc1)c1ccccc1 | 35.5 µM [rising, partial curve, poor fit] | – |
| CC1=Nc2ccccc2N=C(NC(=O)c2ccccc2)C1c1ccc(Cl)cc1 (configuration not stated) | 3.55 µM [rising, single point] | – |
| COc1cc(NC(=O)C/C(C)=N/NC(=O)C(OC)c2ccccc2)c(OC)cc1Cl (configuration not stated) | 29.1 µM [falling, single point] | – |
| Cc1cc(C)nc(SCc2nnc(SCC(=O)N3CCCc4ccccc43)o2)n1 | 0.562 µM [rising, partial curve, poor fit] | – |
| N#C[C@H]1[C@H](c2ccccc2)[C@](C#N)(C(=O)c2ccccc2)[C@@H]2C=Cc3ccccc3N21 | 6.31 µM [falling, single point] | – |
| Cc1nn(C)cc1/C=C/C(=O)c1ccc(O)cc1 | 23.1 µM [falling, partial curve, poor fit] | – |
| CCc1sc(C(=O)Nc2ccc(N3CCOCC3)cc2)cc1C | 1.84 µM [rising, partial curve] | – |
| CCOc1ccc(-c2noc(-c3cccnc3)n2)cc1OC | 3.55 µM [rising, partial curve, poor fit] | – |
| O=C(CSc1nnc2c(n1)[nH]c1ccccc12)Nc1cccc(S(=O)(=O)N2CCOCC2)c1 | 6.31 µM [falling, single point] | – |
| C/C(CCc1oc2ccccc2c1-c1ccc(C)o1)=N/O | 25.1 µM [falling, single point] | – |
| Cc1ccc(C(C)C)c(OCc2nnc3n2CCCCC3)c1 | 0.146 µM [falling, full curve, poor fit] | – |
| COc1ccc(C2=Nn3c(nnc3-c3ccc(OC)cc3)SC2)cc1 | – | 5.17 µM [falling, partial curve] |
| COc1ccc(NC(=O)c2ccco2)cc1NC(=O)c1ccco1 | 1.41 µM [rising, partial curve, poor fit] | – |

Taken from above.
Value for `Cc1ccc(C(C)C)c(OCc2nnc3n2CCCCC3)c1` under AC50 [1]: 0.146 µM [falling, full curve, poor fit]
Value for `COc1ccc(NC(=O)c2ccco2)cc1NC(=O)c1ccco1` under AC50 [1]: 1.41 µM [rising, partial curve, poor fit]
Value for `CCc1sc(C(=O)Nc2ccc(N3CCOCC3)cc2)cc1C` under AC50 [1]: 1.84 µM [rising, partial curve]

Further records.

| Structure (SMILES) | AC50 [1] | AC50 [2] |
| --- | --- | --- |
| Cc1cccc(NC(=O)CSc2ncnc3sc(C)cc23)c1 | 2.51 µM [falling, partial curve] | – |
| COc1cc(O)c2c(=O)c3c(O)ccc(O)c3oc2c1 | 6.51 µM [rising, partial curve] | – |
| CCOC(=O)c1nnsc1NC(C)=O | 23.1 µM [rising, single point] | – |
| COC(=O)Nc1nnc(SCc2ccc(C)cc2)s1 | 8.2 µM [rising, partial curve, poor fit] | – |
| CC(=O)c1cccc(NC(=O)N2CCCC2C(=O)NCc2ccc3c(c2)OCO3)c1 (configuration not stated) | 20 µM [rising, partial curve, poor fit] | – |
| Cc1ccc2nc(NCc3ccc(F)cc3)c3nncn3c2c1 | 0.501 µM [rising, full curve, poor fit] | – |
| Cc1cc(C(N)=O)nn1-c1c(Cl)cc(Cl)cc1Cl | – | 14.1 µM [falling, partial curve, poor fit] |
| COc1cc(/C=C(\C#N)C(=O)Nc2cccc(C(=O)O)c2)ccc1OCc1ccc(F)cc1 | 11.2 µM [falling, partial curve] | – |
| COc1ccc(NC(=O)c2cc(C(C)C)on2)c(OC)c1 | 0.326 µM [rising, full curve, poor fit] | – |
| O=C(OCC1OC(n2ccc(=O)[nH]c2=O)C(O)C1OC(=O)c1ccccc1)c1ccccc1 (configuration not stated) | 4.11 µM [falling, single point] | – |
| Cc1cc(C)c(NC(=O)CSc2nnc(CNC(=O)c3ccccc3F)o2)c(C)c1 | 35.5 µM [rising, single point] | – |
| Cc1noc(C)c1C(=O)N1CCN(CCc2ccccc2)CC1 | 0.731 µM [rising, full curve, poor fit] | – |
| O=C(NC(CCl)c1ccccc1)c1ccc(Cl)cc1 (configuration not stated) | 8.91 µM [rising, partial curve, poor fit] | – |
| CCC(=O)NC(=S)Nc1ccc(-c2nc3ccccc3s2)cc1 | 0.0517 µM [rising, full curve, poor fit] | – |
| COc1cc(OC)cc(C(=O)NCCOC23CC4CC(CC(C4)C2)C3)c1 | 17.8 µM [falling, single point] | – |
| COc1ccc(/C(N)=N/OC(=O)c2c(-c3ccccc3Cl)noc2C)cc1OC | 20 µM [rising, partial curve, poor fit] | – |
| CC(NC(=O)C(=O)N/N=C\c1ccc([N+](=O)[O-])cc1)c1ccccc1 (configuration not stated) | 0.794 µM [rising, full curve, poor fit] | – |
| CCOC(=O)c1ccc(N2C(=O)C3C(C2=O)C(C(=O)c2ccc(Cl)cc2)N2CCCC32)cc1 (configuration not stated) | 3.26 µM [falling, partial curve, poor fit] | – |
| COc1ccc(CCNC(=O)c2cc3c(=O)n(C)c4ccccc4c3n2C)cc1OC | 22.4 µM [rising, partial curve, poor fit] | – |
| O=C(O)Cn1cc(C(=S)N2CCOCC2)c2ccccc21 | 0.00651 µM [falling, full curve, poor fit] | – |
| CCOC(=O)c1c(C)n(C)c2ccc(OCC(O)Cn3c(C)nc4ccccc43)cc12 (configuration not stated) | 3.26 µM [falling, full curve, poor fit] | – |
